Experimental data published in US20060040277A1 (published 2006).
Results are given in words; binding and its absence hold for the method and conditions named. In cells and extracts the contact can be indirect. Some results given as binding are weak or reduced against the parent protein; the word gives no strength. Tags and fused reporters may be left off the sequences shown.

Legend:
[1] = target: T1, MBP-AT2: fusion protein between the C-terminal end of the human AT2 receptor (Asn314-Ser363) and Maltose Binding Protein (human) (UniProt P50052); assay: GST pull-down, SDS-PAGE and immunoblot with anti-MBP
T1 sequence (looked up): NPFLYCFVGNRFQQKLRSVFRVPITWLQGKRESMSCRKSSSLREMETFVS

[2] = target: T1, MBP-AT2: fusion protein between the C-terminal end of the human AT2 receptor (Asn314-Ser363) and Maltose Binding Protein (human); assay: GST pull-down (FIG. 10)
[3] = target: T1, MBP-AT2: fusion protein between the C-terminal end of the human AT2 receptor (Asn314-Ser363) and Maltose Binding Protein (human); assay: GST pull-down

Measured: binding

B1: GST-ATIPmouse-short fusion protein (from pGEX-4T1-GST-ATIPmouse-short), on glutathione-agarose beads (protein, not shown: a dimerising Fc or GST)
chain: QTDRTELENRLKDLYTAECEKLQSIYIEEAEKYKTQLQEQFDNLNAAHETTKLEIEASHSEKVELLKKTYETSLSEIKKSHEMEKKSLEDLLNEKQESLEKQINDLKSENDALNERLFEFPGRLERPHRD
binds: [1] | [2] | [3]
